Assay results: the supplement of paper PMC12889115
This is one part of the list. These are raw signals, not scaled to a control.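 First-pass screen: polymyxin B was added at a level that permeabilizes the Salmonella outer membrane while sparing the inner membrane. DMSO wells, with and without polymyxin B, defined maximum growth. Because plates differed from one another, each plate's data were ranked separately and the compounds with the lowest OD600 were carried forward as hits.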

Tested on: Salmonella enterica serovar Typhimurium SL1344
Experiment: bacterial growth OD600 after 18 h with compound and polymyxin B; higher = more bacterial growth (less inhibition)
Conditions: 50 µM, Mueller-Hinton broth

SMILES	bacterial growth OD600 (polymyxin B 1 µg/mL)	bacterial growth OD600 (polymyxin B 0.75 µg/mL)
Cc1ccc(CNC2CCCc3nc(-c4cccnc4)ncc32)o1 (stereo not given)	0.898	
O=C(NCCC1COc2ccccc2O1)c1ccc(NC2CC2)nc1 (stereo not given)	0.743	
O=C(NCc1cccnc1)c1ccc(N2CCC(NCCC(c3ccccc3)c3ccco3)CC2)cc1 (stereo not given)		0.791
O=C1N(CC2CCC2)CCCC1(O)CN1CCOCC1 (stereo not given)	0.9	
OCC1(CCc2ccccc2)CCCN(C2CCN(Cc3ccccn3)CC2)C1 (stereo not given)		0.791
CO[C@H]1[C@H](NC(=O)c2ccncc2)c2ccccc2C12CCN(C(=O)CCC1CCCCC1)CC2		0.067
Cc1c(C(C)NC(=O)/C=C/c2cccs2)cnn1-c1ccccn1 (stereo not given)	0.901	
COC(=O)CCC(=O)N1CCCC(CCc2ccccc2C)C1 (stereo not given)		0.688
O=C1CCC(C(=O)N2CCCC2)CN1Cc1cccc(C(F)(F)F)c1 (stereo not given)	1.02	
COc1ccc(OC2CCN(C3CCCC3)CC2)c(C(=O)N(C)CC(C)C)c1	0.957	
COc1cccc(CC2(CCC(=O)NCc3cc(C(F)(F)F)ccc3F)CCC(=O)N2)c1 (stereo not given)		0.794
C=Cc1ccc(C(=O)N2CCC3(CC2)c2ccccc2[C@@H](NC(=O)CC)[C@@H]3OCc2cccnc2)cc1		0.825
O=C(c1cc[n+]([O-])cc1)N1CCC(C2CCN(CCc3ccccc3)CC2)C1 (stereo not given)	0.967	
COCC1CCCCN1C(=O)c1cc(OC)ccc1OC1CCN(C(=O)C2CC2)CC1 (stereo not given)	0.889	
C=CCOc1cccc(C(=O)N(C)C2CCCN(Cc3ccccc3F)C2)c1 (stereo not given)	0.797	
Cc1nc(C)c(CN2CCC(C3CCN(Cc4cccnc4)CC3)C2)nc1C (stereo not given)		0.726
CN(Cc1cnn(C)c1)C(=O)c1csc2nc(-c3ccc(C(F)(F)F)cc3)cn12	0.754	
O=C(CCC1CCN(C(=O)c2cccnc2)CC1)Nc1ccc(F)c(Cl)c1	1.03	
CCO[C@H]1[C@H](NC(=O)c2cccnc2)c2ccccc2C12CCN(C(=O)c1cnn(C(C)C)c1)CC2		0.843
CC(=O)N1CCC(N2CCCC(CCc3ccc(F)c(F)c3)C2)CC1 (stereo not given)		0.843
CCCCc1nc2cc(C(=O)NC(C)CCCC(C)(C)O)ccc2o1 (stereo not given)	1.27	
COc1ccccc1CCC(=O)Nc1cnn(CC(=O)NCc2ccc(-n3cccn3)cc2)c1		0.773
O=C(NCc1cccnc1N1CCCC(O)C1)C1(c2ccccc2F)CC1 (stereo not given)		0.853
CCNC(=O)c1cn(CCc2ccccc2)cc(C(=O)N2CCN(c3ccccc3C)CC2)c1=O		0.999
COc1ccc(NC(=O)NC2CC(=O)N(C3CCCCCC3)C2)cc1 (stereo not given)	0.946	
CCCNc1ccc(C(=O)N2CCCN(c3ncccn3)CC2)cn1	0.896	
Cc1nc(-c2ccncc2)ncc1C(C)NCc1nc2ccccc2[nH]1 (stereo not given)		0.777
O=C(NC1CCCC1)C1CCCN(C2CCN(C(=O)C3CC3)CC2)C1 (stereo not given)	0.823	
CC(=O)c1ccc(C(=O)N2CCOc3ccc(CN4CCC(OCc5ccccc5)CC4)cc3C2)cc1		0.89
Cc1ncsc1C(=O)N1CCOC(CCCC(C)C)C1 (stereo not given)	0.862	

A draw from above in order of molecular weight, low to high.
SMILES	bacterial growth OD600 (polymyxin B 1 µg/mL)	bacterial growth OD600 (polymyxin B 0.75 µg/mL)
CC(=O)N1CCC(N2CCCC(CCc3ccc(F)c(F)c3)C2)CC1 (stereo not given)		0.843
COc1cccc(CC2(CCC(=O)NCc3cc(C(F)(F)F)ccc3F)CCC(=O)N2)c1 (stereo not given)		0.794
CCO[C@H]1[C@H](NC(=O)c2cccnc2)c2ccccc2C12CCN(C(=O)c1cnn(C(C)C)c1)CC2		0.843
